Measurements from the supplement of paper PMC8866396.
± gives the standard deviation of the averaged measurements. The list shows a part of the results. Most values lie within the scatter of the assay; repeated measurements hardly agree.

These compounds were tested on IL-6-GFP PC-9GR (assay: IL-6-GFP fluorescence relative to DMSO control (fraction of control); higher = more IL-6-GFP expression). Settings: compound concentration: 10 uM; treatment time: 48 h.
Procedure: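 IL-6-GFP-overexpressing PC-9 and PC-9GR EGFR-mutant lung cancer cells (3000 cells/well, 96-well) were treated for 48 h with each compound of the Selleck L2000 library at 10 uM. IL-6-GFP fluorescence was read on a high-content screening system, and viability by CCK-8 absorbance on a parallel plate set. Each value was normalised as compound well / DMSO control well; two independent replicates.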

Compound	IL-6-GFP fluorescence
CN(C)CCN1C(=O)c2cccc3cc(N)cc(c23)C1=O [Amonafide]	1.43 ± 0.28
Cc1nc(-c2ccc(OCC(C)C)c(C#N)c2)sc1C(=O)O [Febuxostat]	0.59 ± 0.31
Cc1nc2ccc(CN(C)c3ccc(C(=O)NC(CCC(=O)O)C(=O)O)s3)cc2c(=O)[nH]1 (centres undefined) [Raltitrexed]	1.02 ± 0.076
CC[N+](CC)(CC)CCOc1cccc(OCC[N+](CC)(CC)CC)c1OCC[N+](CC)(CC)CC.[I-].[I-].[I-] [Gallamine Triethiodide]	1.07 ± 0.023
Cc1cnc(NC(=O)C2=C(O)c3ccccc3S(=O)(=O)N2C)s1 [Meloxicam]	0.661 ± 0.09
CC1(C)CCC(C)(C)c2cc(NC(=O)c3ccc(C(=O)O)cc3)ccc21 [Tamibarotene]	0.658 ± 0.058
CO/N=C(\C(=O)NC1C(=O)N2C(C(=O)OCOC(=O)C(C)(C)C)=C(C)CSC12)c1csc(N)n1.Cl (centres undefined) [Cefetamet pivoxil hydrochloride]	0.729 ± 0.4
CC(CCC(=O)[O-])C1CCC2C3C(O)CC4CC(O)CCC4(C)C3CC(O)C12C.[Na+] (centres undefined) [Sodium cholate]	1.2 ± 0.22
CN(C)C(=O)COC(=O)Cc1ccc(OC(=O)c2ccc(NC(=N)N)cc2)cc1.CS(=O)(=O)O [Camostat Mesilate]	0.989 ± 0.15
COc1c2ccoc2cc2oc(=O)ccc12 [Bergapten]	0.793 ± 0.18
CCC(C(=O)O)c1ccc(N2Cc3ccccc3C2=O)cc1 (centres undefined) [Indobufen]	0.889 ± 0.088
CC(CCC(=O)NCCS(=O)(=O)O)C1CCC2C3C(O)CC4CC(O)CCC4(C)C3CCC12C (centres undefined) [Tauroursodeoxycholic Acid (TUDCA)]	0.982 ± 0.13
Nc1ccn(C2OC(CO)C(O)C2O)c(=O)n1 (centres undefined) [Cytarabine]	0.893 ± 0.063
Cc1c(Cl)cccc1Nc1ccccc1C(=O)O [Tolfenamic Acid]	0.602 ± 0.37
Nc1nc(F)nc2c1ncn2C1OC(CO)C(O)C1O (centres undefined) [Fludarabine]	0.927 ± 0.39
COC(=O)c1cc(OC)c2c(c1-c1c(C(=O)OC)cc(OC)c3c1OCO3)OCO2 [Bifendate]	0.648 ± 0.12
COc1cc2nccc(Oc3ccc(NC(=O)Nc4cc(C)on4)c(Cl)c3)c2cc1OC [Tivozanib (AV-951)]	1.04 ± 0.095
CC1CCN(C(=O)CC#N)CC1N(C)c1ncnc2[nH]ccc12.O=C(O)CC(O)(CC(=O)O)C(=O)O (centres undefined)	0.7931 ± 0.0058
CC(C)c1nc(N(C)S(C)(=O)=O)nc(-c2ccc(F)cc2)c1/C=C/C(O)CC(O)CC(=O)O (centres undefined) [Rosuvastatin]	1 ± 0.089
COc1cc(CNC(=O)CCCC/C=C\C(C)C)ccc1O [Zucapsaicin]	0.844 ± 0.066

Compound	IL-6-GFP fluorescence
NC(CC(=O)N1CCn2c(nnc2C(F)(F)F)C1)Cc1cc(F)c(F)cc1F (centres undefined) [Sitagliptin]	0.902 ± 0.039
CC(C)(O)CNc1nc(Nc2ccnc(C(F)(F)F)c2)nc(-c2cccc(C(F)(F)F)n2)n1 [Enasidenib (AG-221)]	0.978 ± 0.16
O=c1[nH]cc(F)c(=O)[nH]1 [Fluorouracil (5-Fluoracil, 5-FU)]	1 ± 0.094
CC(=O)N1CC(O)CC1C(=O)O (centres undefined) [Oxaceprol]	0.608 ± 0.46
CN(C)CCOC(c1ccc(Cl)cc1)c1ccccn1.O=C(O)/C=C\C(=O)O (centres undefined) [CarbinoxaMine Maleate]	0.551 ± 0.4
COc1cc2nccc(Oc3ccc(NC(=O)NC4CC4)c(Cl)c3)c2cc1C(N)=O.CS(=O)(=O)O [lenvatinib Mesylate]	1.1 ± 0.29
C=CC(=O)Nc1cc(Nc2nccc(-c3cn(C)c4ccccc34)n2)c(OC)cc1N(C)CCN(C)C [Osimertinib (AZD9291)]	1.37 ± 0.43
CCC(=O)OCC(=O)C1(OC(=O)CC)C(C)CC2C3CCC4=CC(=O)C=CC4(C)C3(Cl)C(O)CC21C (centres undefined) [Beclomethasone dipropionate]	0.998 ± 0.013
CN1C(C(=O)Nc2ccccn2)=C(O)c2ccccc2S1(=O)=O [Piroxicam]	1.14 ± 0.48
Cc1ccc(=O)n(-c2ccccc2)c1 [Pirfenidone]	0.864 ± 0.082
Cl.Clc1ccc(CCCOCCCN2CCCCC2)cc1 [Pitolisant hydrochloride]	0.934 ± 0.011
Cc1oncc1C(=O)Nc1ccc(C(F)(F)F)cc1 [Leflunomide]	0.937 ± 0.048
O=C(O)c1cc(-c2ccc(F)cc2F)ccc1O [Diflunisal]	0.45 ± 0.48
CCCCC1C(=O)N(c2ccccc2)N(c2ccccc2)C1=O [Phenylbutazone]	0.677 ± 0.36
CC(C(=O)[O-])c1cccc(Oc2ccccc2)c1.CC(C(=O)[O-])c1cccc(Oc2ccccc2)c1.[Ca+2] (centres undefined) [Fenoprofen Calcium]	0.805 ± 0.1
COc1ccc2cc(C(C)C(=O)[O-])ccc2c1.[Na+] (centres undefined) [Naproxen Sodium]	0.913 ± 0.27
CN(C)C/C=C/C(=O)Nc1cc2c(Nc3ccc(F)c(Cl)c3)ncnc2cc1OC1CCOC1 (centres undefined) [Afatinib (BIBW2992)]	1.19 ± 0.13
CC(=O)OC1(C(C)=O)CCC2C3CC(C)C4=CC(=O)C=CC4(C)C3(F)C(O)CC21C (centres undefined) [Fluorometholone Acetate]	0.823 ± 0.14
O=C([O-])CC(O)(CC(=O)[O-])C(=O)[O-].O=C([O-])CC(O)(CC(=O)[O-])C(=O)[O-].[BiH6+3].[K+].[K+].[K+] [Gastrodenol]	0.949 ± 0.24

Looked up above.
IL-6-GFP fluorescence with O=c1[nH]cc(F)c(=O)[nH]1 [Fluorouracil (5-Fluoracil, 5-FU)] reads 1 ± 0.094
IL-6-GFP fluorescence with COc1cc2nccc(Oc3ccc(NC(=O)NC4CC4)c(Cl)c3)c2cc1C(N)=O.CS(=O)(=O)O [lenvatinib Mesylate] reads 1.1 ± 0.29
